For three substances, binding results are on record in publication PMC13061415.

Sequences of proteins named here, by UniProt entry; tags and fusion partners are left off. A change or cut given only in a name is not applied to a line headed by its entry. A line that says so, or that is headed by a name, gives the form on record, which may keep a tag or linker.
UniProt Q6VN19: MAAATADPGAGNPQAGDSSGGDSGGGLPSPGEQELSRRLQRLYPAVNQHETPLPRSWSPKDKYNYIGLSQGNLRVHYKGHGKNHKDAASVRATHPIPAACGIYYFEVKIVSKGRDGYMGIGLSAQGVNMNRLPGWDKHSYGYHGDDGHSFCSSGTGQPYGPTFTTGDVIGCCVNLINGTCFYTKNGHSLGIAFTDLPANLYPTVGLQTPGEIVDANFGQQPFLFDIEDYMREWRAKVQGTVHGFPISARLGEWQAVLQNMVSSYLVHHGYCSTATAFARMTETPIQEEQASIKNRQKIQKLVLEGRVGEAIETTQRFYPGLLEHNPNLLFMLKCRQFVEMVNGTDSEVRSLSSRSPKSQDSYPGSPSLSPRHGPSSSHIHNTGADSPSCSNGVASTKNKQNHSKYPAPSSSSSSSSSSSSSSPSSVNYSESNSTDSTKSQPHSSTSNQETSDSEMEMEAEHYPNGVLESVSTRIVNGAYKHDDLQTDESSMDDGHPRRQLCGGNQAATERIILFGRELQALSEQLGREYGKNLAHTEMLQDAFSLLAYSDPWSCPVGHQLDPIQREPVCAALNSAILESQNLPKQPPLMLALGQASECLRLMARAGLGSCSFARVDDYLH
muskelin CTLH-CRA domain (205–735 Δ248–625) (Q99PV3, form named): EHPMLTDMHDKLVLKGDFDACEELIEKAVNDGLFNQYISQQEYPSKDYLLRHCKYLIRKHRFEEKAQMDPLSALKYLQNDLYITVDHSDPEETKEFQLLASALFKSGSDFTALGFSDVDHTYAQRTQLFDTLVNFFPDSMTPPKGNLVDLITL
UniProt Q9D7M1: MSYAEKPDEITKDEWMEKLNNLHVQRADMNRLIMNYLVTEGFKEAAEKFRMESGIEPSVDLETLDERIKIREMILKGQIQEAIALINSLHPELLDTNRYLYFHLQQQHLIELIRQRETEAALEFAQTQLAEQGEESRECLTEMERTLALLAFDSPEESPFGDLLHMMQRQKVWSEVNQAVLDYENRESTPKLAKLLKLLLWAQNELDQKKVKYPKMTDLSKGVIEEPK

In assay [1] the target is T1, Wdr26 (102–641) (mouse) (UniProt Q8C6G8).
T1 sequence: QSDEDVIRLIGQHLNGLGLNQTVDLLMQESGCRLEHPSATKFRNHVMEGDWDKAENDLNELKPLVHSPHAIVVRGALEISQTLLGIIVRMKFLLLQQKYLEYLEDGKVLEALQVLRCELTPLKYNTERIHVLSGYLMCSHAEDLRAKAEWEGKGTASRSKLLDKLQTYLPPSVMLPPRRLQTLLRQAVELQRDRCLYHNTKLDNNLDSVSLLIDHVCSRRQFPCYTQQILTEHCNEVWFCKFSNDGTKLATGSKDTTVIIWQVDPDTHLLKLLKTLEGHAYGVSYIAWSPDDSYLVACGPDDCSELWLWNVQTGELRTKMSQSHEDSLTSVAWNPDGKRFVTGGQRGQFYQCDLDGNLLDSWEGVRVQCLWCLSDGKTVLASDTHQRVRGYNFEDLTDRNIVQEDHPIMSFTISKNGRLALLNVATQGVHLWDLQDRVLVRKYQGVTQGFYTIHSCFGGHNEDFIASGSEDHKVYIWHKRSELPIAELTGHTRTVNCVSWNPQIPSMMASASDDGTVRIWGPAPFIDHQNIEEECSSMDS
Briefly: SEC; analytical SEC, Superose 6 increase 10/300 GL; proteins at 30 μM, 1:1 molar ratio, 30 min on ice; both purified.

Assay [2] has as its target T1, Wdr26 (102–641) (mouse). Nature of the assay: ITC; direct titration of RanBP9/10-Twa1 complexes into muskelin or Wdr26 (e.g. 45 μM into 4 μM for RanBP10-Twa1 and muskelin); 25°C; isotherms too steep to fit; both purified. (In general: Isothermal titration calorimetry measures the heat released or taken up as one component is titrated into another.)
Assay [3] deals with RanBP10 CTLH-CRA domain F543L, Y548F (mouse) (UniProt Q6VN19). Nature of the assay: ITC; muskelin CTLH-CRA (160 μM, syringe) titrated into RanBP10 or Twa1 CTLH-CRA variants (16 μM, cell); 25°C; 20 mM tricine pH 8.0, 500 mM NaCl, 1 mM TCEP; one-site model; both purified.
Assay [4] concerns the target RanBP10 CTLH-CRA domain F543L, V556F (mouse) (UniProt Q6VN19). Described as above.
The target of assay [5] is RanBP10 CTLH-CRA domain Y548F, V556F (mouse) (UniProt Q6VN19). The description is as above.
For assay [6], the target named is T2, Maea CTLH-CRA domain (156-279) (mouse) (UniProt Q4VC33).
T2 sequence: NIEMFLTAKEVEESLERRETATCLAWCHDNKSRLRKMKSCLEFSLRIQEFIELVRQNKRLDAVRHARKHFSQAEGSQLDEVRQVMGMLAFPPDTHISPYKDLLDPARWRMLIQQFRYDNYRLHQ
Nature of the assay: native gel or EMSA; native agarose gel electrophoresis (NAGE): CTLH-CRA domains at 200 μM incubated with the partner at least 30 min at room temperature; 0.8% agarose, 25 mM Tris, 200 mM glycine, 4°C; Coomassie; both purified. On the technique in general: A gel shift assay detects complexes by their altered migration in electrophoresis.

Results are given in words; binding and its absence hold for the method and conditions named. For part of these data: Binding can be weak; no strength is given.

On to “RanBP10 (57–648)-Twa1 (1–228) complex (mouse)”, for which the binding result in the assay with Wdr26 (102–641) (mouse) [1] and with Wdr26 (102–641) (mouse) [2] was “binds” in each case.

With “muskelin CTLH-CRA domain (205–735 Δ248–625) (from UniProt Q99PV3) (domain or fragment)”, the binding result in assay [3], in assay [4] and in assay [5] was “binds” throughout.

“Twa1_45 mutant, CTLH-CRA domain (from UniProt Q9D7M1) (domain or fragment)”: the binding result in assay [6] is reported as “no binding (tested: 200 μM)”.
